For 18 molecules, binding results are on record in patent US20260028422A1 (CONCEPT TO MEDICINE BIOTECH, published 2026).

Experiment [1] addresses cyno MerTK-his protein (cynomolgus). Description: ELISA, coated cyno MerTK-his (FIG. 2). For orientation: An ELISA detects its analyte on a solid surface through an enzyme-linked reagent.
Experiment [2] deals with T1, human MerTK-his protein (human, UniProt Q12866 21-505).
T1 construct: extracellular domain; also called hMerTK-His; human MerTK protein
T1 sequence (looked up): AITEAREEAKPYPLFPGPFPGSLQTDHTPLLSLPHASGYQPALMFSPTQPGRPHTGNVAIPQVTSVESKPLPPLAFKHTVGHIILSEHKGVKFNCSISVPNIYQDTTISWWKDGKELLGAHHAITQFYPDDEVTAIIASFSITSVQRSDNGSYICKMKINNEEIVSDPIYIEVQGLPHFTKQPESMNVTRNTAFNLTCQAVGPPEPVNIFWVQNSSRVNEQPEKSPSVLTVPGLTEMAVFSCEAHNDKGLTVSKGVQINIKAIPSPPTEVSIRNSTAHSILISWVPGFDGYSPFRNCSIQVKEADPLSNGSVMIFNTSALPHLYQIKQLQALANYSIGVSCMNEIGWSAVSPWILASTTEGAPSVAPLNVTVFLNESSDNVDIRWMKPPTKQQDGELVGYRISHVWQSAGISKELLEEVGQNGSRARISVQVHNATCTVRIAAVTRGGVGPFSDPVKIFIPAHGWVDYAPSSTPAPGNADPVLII
The experiment can be described thus: ELISA, coated human MerTK-his. Here is the method:
To evaluate the binding activity, the chimeric mAbs were subjected to ELISA test. Briefly, 96-well plates were coated with human or cyno MerTK-his protein at 2 μg/mL in PBS, 100 μL/well at 4° C. overnight, then blocked with 150 μL/well of 1% BSA. Five-fold dilutions of MerTK antibodies starting from 20 nM were added to each well and incubated for 1 hour at room temperature. The plates were washed with PBS/Tween-20 and then incubated with goat anti-human IgG Fe antibody conjugated with Horse Radish Peroxidase (HRP) for 30 minutes (mins) at room temperature. After washing, the plates were developed with TMB substrate and subsequent stop solution was added to complete the reaction. The signal from each well was read by spectrophotometer at OD 450 nm.

Experiment [3] addresses T1, human MerTK-his protein. The experiment can be described thus: ELISA, coated human MerTK-his (FIG. 7).

These are yes or no findings as the source states them, for the method shown. Some binding calls cover weakened binding; strength is not graded here. For part of these data: Where a sequence is shown, tags or fusion partners need not be part of it.

B1: 254B4D9 chimeric monoclonal antibody (antibody, V domains shown)
VH: QIQLVQSGPELKKPGETVKISCKASGYTFTAYGMSWVKQAPGKGLQWMGWINTYSGVPTYTDDFKGRFAFSLEASASTAFLQINNLKNEDTSTYFCARRAAVVAKYWYFDVWGTGTTVTVSS
VL: DIQMTQSPSSLFASLGGKVIITCKSSQDINKRISWYQHKPGKGPRLLIHSTSSLQPGIPLRFSGSGSGRDYSFSISNLEPEDIATYFCLQYDNLLTFGAGTKLELK
For the molecule B1, the binding result in experiment [1] is given as “binds”.

B2: 10F7D9 chimeric monoclonal antibody (antibody, V domains shown)
VH: QIQLVQSGPELKKPGETVKISCKASGYTFTNYGMNWVKQAPGKGLKWMGWINTYTGEPTYADDFKGRFAFSLETSASTAYLQINNLKNEDLATYFCATYGHYAWFAYWGQGTLVTVSA
VL: QIVLSQSPAILSASPGEKVTMTCRASSSVSYMHWYQQKSGSSPKPWIYATSNLASGVPARFSGSGSGTSYSLTISRVEAEDAATYFCQQWGTKPLTFGAGTKLELK
In the case of B2, the binding entry in experiment [1] is listed as “binds”.

B3: 85H8D5 chimeric monoclonal antibody (antibody, V domains shown)
VH: QIQLVQSGPELKKPGETVKISCMASGYTFTTHGVTWVKQAPGQGLQRMGWINTYSGVPTYADDFKGRFVFSLETSANTAHLQINNLKNEDTATYFCARTNNYRYFDVWGTGTTVTVSS
VL: QIVLSQSPAILSSSPGEKVTMTCRASSSVSYMHWYQQKPGSSPKPWIYATSNLASGVPARFSGSGSGTSYFLTISRVEAEDAATYYCQQWNTDPPTFGGGTKLEIK
On to B3, for which, in experiment [1], the binding entry is recorded as “binds”.

B4: 252H9D5 chimeric monoclonal antibody (antibody, V domains shown)
VH: QVTLRESGPGILQPSQTLSLTCSFSGFSLNTFGMGVGWIRQSSGKGLKWLAHIWWDDDKFYNPALKSRLTISKDTSKNQVFLKIANVDTTDTATYYCARIEGGLPYYYDYWGQGTPLIVSS
VL: DIVMTQSQKIMSTSVGDRISVTCKASQIVGTNVVWYQQKPGQSPKALIYSTSYRYSGVPDRFTGSRSGTDFTLTISNVQSEDLANYFCQQYNSYPFTFGSGTKLEIK
Regarding B4, the binding entry in experiment [1] is “binds”.

B5: 10F7D9 Hu-5 (antibody, V domains shown)
VH: QIQLVQSGSELKKPGASVKVSCKASGYTFTNYGMNWVKQAPGQGLKWMGWINTYTGEPTYADDFKGRFVFSLDTSVSTAYLQISSLKAEDTAVYFCATYGHYAWFAYWGQGTLVTVSS
VL: EIVLTQSPDFQSVTPKEKVTITCRASSSVSYMHWYQQKPDQSPKLLIKATSNLASGVPSRFSGSGSGTDFTLTINSLEAEDAATYYCQQWGTKPLTFGQGTKLEIK
For the molecule B5, the binding result with human MerTK-his protein [2] and with human MerTK-his protein [3] was “binds” throughout.

B6: 10F7D9 Hu-7 (antibody, V domains shown)
VH: QVQLVQSGSELKKPGASVKVSCKASGYTFTNYGMNWVRQAPGQGLEWMGWINTYTGEPTYADDFKGRFVFSLDTSVSTAYLQISSLKAEDTAVYYCARYGHYAWFAYWGQGTLVTVSS
VL: EIVLTQSPDFQSVTPKEKVTITCRASSSVSYMHWYQQKPDQSPKPWIKATSNLASGVPSRFSGSGSGTDFTLTINSLEAEDAATYYCQQWGTKPLTFGQGTKLEIK
B6: the binding entry with human MerTK-his protein [2] and in the experiment with human MerTK-his protein [3] was “binds” throughout.

B7: 10F7D9 Hu-12 (antibody, V domains shown)
VH: QVQLVQSGSELKKPGASVKISCKASGYTFTNYGMNWVRQAPGQGLEWMGWINTYTGEPTYADDFKGRFVFSLDTSVSTAYLQINNLKAEDTAVYFCATYGHYAWFAYWGQGTLVTVSS
VL: EIVLTQSPDFQSVTPKEKVTITCRASSSVSYMHWYQQKPDQSPKPWIKATSNLASGVPSRFSGSGSGTDFTLTINSLEAEDAATYYCQQWGTKPLTFGQGTKLEIK
In the case of B7, the binding result with human MerTK-his protein [2] and with human MerTK-his protein [3] was “binds” in each case.

B8: 10F7D9 Hu-9 (antibody, V domains shown)
VH: QIQLVQSGSELKKPGASVKVSCKASGYTFTNYGMNWVRQAPGQGLEWMGWINTYTGEPTYADDFKGRFVFSLDTSVSTAYLQISSLKAEDTAVYFCATYGHYAWFAYWGQGTLVTVSS
VL: EIVLTQSPDFQSVTPKEKVTITCRASSSVSYMHWYQQKPDQSPKPWIKATSNLASGVPSRFSGSGSGTDFTLTINSLEAEDAATYYCQQWGTKPLTFGQGTKLEIK
Take B8: the binding result with human MerTK-his protein [2] and with human MerTK-his protein [3] was “binds” each time.

B9: 10F7D9 Hu-10 (antibody, V domains shown)
VH: QIQLVQSGSELKKPGASVKVSCKASGYTFTNYGMNWVRQAPGQGLKWMGWINTYTGEPTYADDFKGRFVFSLDTSVSTAYLQISSLKAEDTAVYFCATYGHYAWFAYWGQGTLVTVSS
VL: EIVLTQSPDFQSVTPKEKVTITCRASSSVSYMHWYQQKPDQSPKPWIKATSNLASGVPSRFSGSGSGTDFTLTINSLEAEDAATYYCQQWGTKPLTFGQGTKLEIK
In the case of B9, the binding entry with human MerTK-his protein [2] and with human MerTK-his protein [3] was “binds” throughout.

B10: 10F7D9 Hu-11 (antibody, V domains shown)
VH: QIQLVQSGSELKKPGASVKVSCKASGYTFTNYGMNWVKQAPGQGLKWMGWINTYTGEPTYADDFKGRFVFSLDTSVSTAYLQISSLKAEDTAVYFCATYGHYAWFAYWGQGTLVTVSS
VL: EIVLTQSPDFQSVTPKEKVTITCRASSSVSYMHWYQQKPDQSPKPWIKATSNLASGVPSRFSGSGSGTDFTLTINSLEAEDAATYYCQQWGTKPLTFGQGTKLEIK
For the molecule B10, the binding result with human MerTK-his protein [2] and with human MerTK-his protein [3] was “binds” in each case.

B11: 276C2D1 chimeric monoclonal antibody (antibody, V domains shown)
VH: QVQLQQSGPELVKPGASVKLSCKASGYTFTSYDINWVKQRPGLGLEWIGWIYPRDGYTKYNEKFKGKATLAVDTSSSTAYMELHSLTSEDSAVYFCARGYYSNLYYFDYWGQGTTLTVSS
VL: EVVLTQSPPTMAASPGEKITITCSASSSISSNYLHWYQQKPGFSPKLLIYRTSNLASGVPARFSGSGSGTSYSLTIGTMEAEDVATYYCQQGRSIPLTFGAGTKLELK
Take B11: the binding result in experiment [1] is listed as “binds”.

B12: 280C6A3 chimeric monoclonal antibody (antibody, V domains shown)
VH: QVQLQQSGPELVKPGASVKLSCKASGYSFTTYDINWVKQRPGQGLEWIGWIYPRDGSTKYNEKFKGKATLTLDTSSNTAYMGLHSLTSEDSAVYFCARGYYDNLYYFDYWGQGTTLTVSS
VL: EIVLTQSPTTMAASPGEKITITCSASSSVSSNYLHWYQQKPGFSPKLLIYRTSNLASGVPARFSGSGSGTSYSLTIGTMEAEDVATYYCQQGRIVPLTFGAGTKLELK
With B12, the binding result in experiment [1] was “binds”.

B13: 265F11B5 chimeric monoclonal antibody (antibody, V domains shown)
VH: QVQLQQSGPELVKPGASVRLSCKASGYTFTTYDINWVKQRPGLGLEWIGWIYPRDGYTKYNEKFKGRATLAVDTSSSTAYMELHSLTSEDSAVYFCTRGYYDNLYYFDYWGQGTTLTVSS
VL: EIVLTQSPTTVAASPGEKITITCSASSIISSNYFHWYQQRPGFSPKLLIYRTSNLASGVPARFSGSGSGTSYSLTIGTMEAEDVATYYCQQGRSVPLTFGAGTKLELK
For B13, the binding entry in experiment [1] is given as “binds”.

B14: 293C2B7 chimeric monoclonal antibody (antibody, V domains shown)
VH: QVQLQQSGPELVKPGASVKLSCKASGYTFTSYDINWVKQRPGQGLEWIGWIYPRDGYTKYKEKFKGKATLTVDTSSSTAYMELHSLTSEDSAVYFCARGFYSNLYYFDYWGQGTTLTVSS
VL: EIVLTQSPTTMATSPGEKITITCSASSSISSNYLHWYQQKPGFSPKLLIYRTSNLASGVPDRFSGSGSGTSYSLTIGTMEAEDVATYYCQQGRSIPLTFGAGTKLELK
Take B14: the binding result in experiment [1] is listed as “binds”.

B15: 300A5A3 chimeric monoclonal antibody (antibody, V domains shown)
VH: QVQLQQSGPELVKPGASVKLSCKASGYTFTTYDINWVKQRPGLGLEWIGWIYPRDGYTKYNEKFKGKATLAVDTSSSTASMELHSLTSEDSAVYFCARGYYDNLYYFDNWGPGTTLTVSS
VL: ENVLTQSPTTVAASPGEKITITCSASSIISSNYLHWYQQKPGFSPKLLIYRTSNLASGVPARFSGSGSGTSYSLTIGTMEAEDAATYYCQQGRSVPLTFGAGTKLELK
For the molecule B15, the binding result in experiment [1] is given as “binds”.

B16: 247E5A8 chimeric monoclonal antibody (antibody, V domains shown)
VH: DVQLQESGPGLVKPSQSLSLTCSVTGYSITGGYYWTWIRQFPGNKLEWMGYISYDGDNNYNPSLKNRISITRDTSKNQFFLNLNSVTTEDTATYYCAREGGRLRTMDYWGQGTSVTVSS
VL: QIVLTQSPAIMSASPGEKVTITCRASSSVNYMHWFQQKPGTSPKLWIYTTSNLASGVPARFSGSGSGTSYSLTISRMEAEDAATYYCQQRSSYPFTFGSGTKLEIK
Take B16: the binding entry in experiment [1] is recorded as “binds”.

B17: 252C12B10 chimeric monoclonal antibody (antibody, V domains shown)
VH: QVQLQQPGTELVKPGASVKLSCKTSGYTFTSYWMHWMKQRPGQGLEWLGHINPSTGGSNYNEKFKSKATLTVDKSSNTAYMQLSSLTSEDSAVYYCARPRGFYGYSYWYFDVWGSGTTVTVSS
VL: DIQMTQTTSSLSASLGDRVTISCSASQDINNYLNWYQHKPDGTIKVLIYFTSSLHSGVPSRFSGSGSGTEYSLTISNLEPEDIATYYCQQYSKLPPTFGSGTKLEIK
For B17, the binding result in experiment [1] is “binds”.

B18: 216G3D6 chimeric monoclonal antibody (antibody, V domains shown)
VH: QVTLKESGPGILQPSQTLSLTCSFSGFSLSTSGMGVGWIRQPSGKGLEWLAHIWWDDDKHCNPALKSRLTISKDTSSNQVFLKIASLDTADTATYYCTQMTMTREFAYWGQGTLVTVSA
VL: DIQMTQTISSLSASLGDRVTISCSAGQGISNYLNWYQQKPDGTVKLLIYYTSRLHSGVPSRFSGSGSGTDFSLTISNLEPEDIATYFCQQYSKFPYTFGGGTKLEIK
On to B18, for which the binding result in experiment [1] is “binds”.
